No constants are given. Whether binding was seen depends on the method and setting. Where a sequence is shown, tags or fusion partners need not be part of it.
T1: recombinant BMPRIB-Fc (mouse, UniProt P36898 14-126)
T1 construct: BMPRIB (ALK6), mouse, extracellular domain; cDNA fragment NM_007560.3, 4-378 bp, from FANTOM cDNA clones (RIKEN); also called ALK6; source: 293F cells, transfected, purified from culture supernatant (Protein A columns)
T1 sequence (looked up): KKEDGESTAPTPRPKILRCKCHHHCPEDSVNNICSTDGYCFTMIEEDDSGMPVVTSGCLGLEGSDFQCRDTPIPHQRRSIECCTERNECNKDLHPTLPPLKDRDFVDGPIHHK

Amino acid sequences for entries named in this document (tags omitted). Residues count along the entry.
UniProt P08476, residues 311-426: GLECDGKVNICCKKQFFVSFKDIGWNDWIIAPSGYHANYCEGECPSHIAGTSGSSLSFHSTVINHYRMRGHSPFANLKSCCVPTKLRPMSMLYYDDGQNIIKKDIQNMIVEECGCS


Biological target: T1, recombinant BMPRIB-Fc
Assay: SPR; BMPRIA-Fc or BMPRIB-Fc captured with an anti-human Fc IgG capture kit; ligands injected at 25 °C, 30 μL/min; HBS-EP (+) running buffer; single-cycle kinetics, 1:1 binding model, Biacore T100; average of 2 or 3 independent analyses; both purified

binding	Molecule
no binding	human BMP9 (ligand, UniProt Q9UK05 320-429) SAGAGSHCQKTSLRVNFEDIGWDSWIIAPKEYEAYECKGGCFFPLADDVTPTKHAIVQTLVHLKFPTKVGKACCVPTKLSPISVLYKDDMGVPTLKYHYEGMSVAECGCR
no binding	human BMP15 (ligand, UniProt O95972 268-392) QADGISAEVTASSSKHSGPENNQCSLHPFQISFRQLGWDHWIIAPPFYTPNYCKGTCLRVLRDGLNSPNHAIIQNLINQLVDQSVPRPSCVPYKYVPISVLMIEANGSILYKEYEGMIAESCTCR
no binding	human GDF9 (ligand, UniProt O60383 320-454) GQETVSSELKKPLGPASFNLSEYFRQFLLPQNECELHDFRLSFSQLKWDNWIVAPHRYNPRYCKGDCPRAVGHRYGSPVHTMVQNIIYEKLDSSVPRPSCVPAKYSPLSVLTIEPDGSIAYKEYEDMIATKCTCR

The remaining lines, values behind:

Molecule	binding
human Activin A (from UniProt P08476 311-426) (ligand)	no binding
human GDF11 (ligand, UniProt O95390 299-407) NLGLDCDEHSSESRCCRYPLTVDFEAFGWDWIIAPKRYKANYCSGQCEYMFMQKYPHTHLVQQANPRGSAGPCCTPTKMSPINMLYFNDKQQIIYGKIPGMVVDRCGCS	no binding

Reference: publication PMC4702141 (Scientific Reports, 2016)
